Reference: PubChem BioAssay AID1259308 (NCATS, 2017)
Assay: 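Candidate targets for better recombinant protein yield in mammalian cells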 (primary screen). Cell system: human HEK293 embryonic kidney cells stably expressing firefly luciferase (HEK-CMV-Luc2-Hygro). Knock-down reagent: single siRNA against human genes, 0.8 pmol siRNA per well. Duration: 72 h. Detection: 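Luciferase light (ONE-Glo) measured on one replicate plate set and viability (CellTiter-Glo) on the other, scaled to a negative control siRNA, with robust z-scores and luciferase per cell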. Scale: total luciferase, z-score: higher = more reporter protein produced. Call rule: 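Active when the median/MAD z-score for overall luciferase is greater than 3; a gene was taken forward for validation with new siRNAs if at least two of its three siRNAs passed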. Calls: active = raised luciferase; inactive = no rise.
Here is a random part of about 59,000 reagents tested. In the full data, about 1,510 (2.6%) are marked active. 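Calls use total luciferase alone and ignore viability, so some active siRNAs may act by altering cell number.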 The numbers tell different reagents against one gene apart. Further read-outs or replicates are left out here.

KIAA0930 (GeneID 23313) #1 → total luciferase, z-score: 0.17; outcome: inactive
KIAA0930 (GeneID 23313) #2 → total luciferase, z-score: 0.829; outcome: inactive
KIAA0930 (GeneID 23313) #3 → total luciferase, z-score: -0.343; outcome: inactive
HEXIM1 (GeneID 10614) #1 → total luciferase, z-score: -0.289; outcome: inactive
HEXIM1 (GeneID 10614) #2 → total luciferase, z-score: 3.38; outcome: active
HEXIM1 (GeneID 10614) #3 → total luciferase, z-score: 0.851; outcome: inactive
LETR1 (GeneID 400456) #1 → total luciferase, z-score: -1.62; outcome: inactive
LETR1 (GeneID 400456) #2 → total luciferase, z-score: -0.232; outcome: inactive
LETR1 (GeneID 400456) #3 → total luciferase, z-score: 0.429; outcome: inactive

The list goes on (3 carried over from the part before).
LETR1 (GeneID 400456) #1 → total luciferase, z-score: -1.62; outcome: inactive
LETR1 (GeneID 400456) #2 → total luciferase, z-score: -0.232; outcome: inactive
LETR1 (GeneID 400456) #3 → total luciferase, z-score: 0.429; outcome: inactive
CCL16 (GeneID 6360) #1 → total luciferase, z-score: 0.88; outcome: inactive
CCL16 (GeneID 6360) #2 → total luciferase, z-score: 0.289; outcome: inactive
CCL16 (GeneID 6360) #3 → total luciferase, z-score: -1.11; outcome: inactive
ABHD12B (GeneID 145447) #1 → total luciferase, z-score: -0.726; outcome: inactive
ABHD12B (GeneID 145447) #2 → total luciferase, z-score: 1.31; outcome: inactive
ABHD12B (GeneID 145447) #3 → total luciferase, z-score: -0.672; outcome: inactive
PMPCA (GeneID 23203) #1 → total luciferase, z-score: 4.44; outcome: active
PMPCA (GeneID 23203) #2 → total luciferase, z-score: 0.146; outcome: inactive
PMPCA (GeneID 23203) #3 → total luciferase, z-score: -0.0322; outcome: inactive
ZNF608 (GeneID 57507) #1 → total luciferase, z-score: -0.983; outcome: inactive
ZNF608 (GeneID 57507) #2 → total luciferase, z-score: -0.978; outcome: inactive
ZNF608 (GeneID 57507) #3 → total luciferase, z-score: -0.546; outcome: inactive
